This passage reports Antihistaminic activity results from patent publication US6506767B1, “8-chloro-6,11-dihydro-11-(4-piperidylidine)-5H-benzo[5,6]cyclohepta[1-2-b] pyridine” (Schering Corporation, priority 1997, dated 2003).

SMILES strings stand for the structures.

The experiment concerns monkey model.

On to `Clc1ccc2c(c1)CCc1cccnc1C2=C1CCNCC1` [form 1, 8-chloro-6,11-dihydro-11-(4-piperidylidene)-5H-benzo[5,6]cyclohepta[1,2-b]pyridine], for which the Antihistaminic activity result is listed as “demonstrated”.
